## Drug screen on melanoma cell lines: apoptosis marker

Source: doi:10.1371/journal.pone.0140310, primary screening data, rounded.

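Human melanoma cell lines in 1,536-well plates were treated with a pair of drugs for 72 h, then fixed, stained and imaged. The read-out is the fraction of cleaved-PARP-positive nuclei, in % of that fraction in the DMSO control; 200 means twice the control level of this apoptosis marker. Concentrations were fixed for each drug; these are the higher of two levels. These are primary screening values without error estimates. Basal and induced levels differ widely between cell lines.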 An unselected part of the screen is shown. An entry leaves out what has no value listed here. A dash means that no value is listed here.

All values are for the listed drug together with indole-3-carbinol (4000 nM): OCc1c[nH]c2ccccc12

Partner,IPC-298,LOX IMVI,MZ2-MEL,COLO 800,WM451Lu,WM3526,WM1716,RVH-421,A2058,UACC-257,501mel,MEL-HO,RPMI-7951,WM3619,SK-MEL-5
CCCCCCCCCCCCCCCCCCOP(=O)([O-])OC1CC[N+](C)(C)CC1 at 2000 nM,103,53.7,139,201,68.7,98.1,94.1,181,149,70.6,-,103,211,70.1,108
CCN(CC)CCNC(=O)c1c(C)[nH]c(/C=C2\C(=O)Nc3ccc(F)cc32)c1C at 2000 nM,148,120,64.1,158,209,230,112,204,119,72.3,-,50.6,89.3,137,336
COc1cc2c(Oc3ccc4[nH]c(C)cc4c3F)ncnc2cc1OCCCN1CCCC1 at 2000 nM,64.5,55.1,115,146,30.7,228,84.4,101,75.2,29.9,-,61.4,184,98.5,137
CO[C@@H]1[C@H](N(C)C(=O)c2ccccc2)C[C@H]2O[C@]1(C)n1c3ccccc3c3c4c(c5c6ccccc6n2c5c31)C(=O)NC4 at 400 nM,110,75.4,550,189,56.8,208,154,99.5,157,70.5,-,156,81.9,110,78.9
CN(C)S(=O)(=O)c1ccc2c(c1)/C(=C/c1cc3c([nH]1)CCCC3)C(=O)N2 at 2000 nM,70.8,49.2,92.8,170,89.6,106,68.7,101,107,100,-,146,125,101,137
CCN(CC)CCCCNc1ncc2cc(-c3cc(OC)cc(OC)c3)c(NC(=O)NC(C)(C)C)nc2n1 at 500 nM,80.2,192,45.0,42.2,160,94.2,123,28.5,113,48.4,68.8,78.4,94.6,95.4,293
C[C@]1(O)C[C@@H](c2nc(-c3ccc4ccc(-c5ccccc5)nc4c3)c3c(N)nccn32)C1 at 2000 nM,39.3,104,55.9,73.6,96.2,152,79.0,118,151,84.2,-,41.7,46.6,124,143
Nc1ccn([C@@H]2O[C@H](CO)[C@@H](O)C2(F)F)c(=O)n1 at 2 nM,236,62.9,34.4,577,283,69.1,92.4,108,163,141,-,297,207,190,33.3
O=C(CCCCCCC(=O)Nc1ccccc1)NO at 400 nM,41.9,284,153,159,79.8,84.6,60.8,57.9,46.1,174,-,152,215,121,53.7
Cc1cc(Nc2cc(N3CCN(C)CC3)nc(Sc3ccc(NC(=O)C4CC4)cc3)n2)n[nH]1 at 30 nM,49.2,39.2,275,322,249,157,120,128,151,40.7,-,173,84.0,133,218
CNC(=O)c1cc(Oc2ccc(NC(=O)Nc3ccc(Cl)c(C(F)(F)F)c3)cc2)ccn1 at 2000 nM,80.2,179,90.0,68.7,85.5,102,71.2,124,112,52.9,-,82.6,63.5,79.0,91.7
NCC(=O)Nc1ccc(-n2nc(C(F)(F)F)cc2-c2ccc3c(ccc4ccccc43)c2)cc1 at 5000 nM,311,105,-,139,211,601,27.6,57.1,139,183,-,186,80.5,106,1220
C#Cc1cccc(Nc2ncnc3cc(OCCOC)c(OCCOC)cc23)c1 at 4000 nM,176,120,84.7,102,141,136,46.1,167,125,70.7,-,46.1,149,89.0,347
Cc1cn(-c2cc(NC(=O)c3ccc(C)c(Nc4nccc(-c5cccnc5)n4)c3)cc(C(F)(F)F)c2)cn1 at 1000 nM,31.5,117,55.3,88.8,38.5,228,138,87.9,113,137,-,100,143,98.4,107
Cc1cc(SCc2sc(-c3ccc(C(F)(F)F)c(F)c3)nc2C)ccc1OCC(=O)O at 10000 nM,74.3,95.3,77.1,105,37.4,93.5,32.0,50.5,109,104,22.1,81.5,133,83.1,184
O=C1NC(=O)/C(=C/c2ccc(-c3ccc(F)cc3O)o2)S1 at 5000 nM,50.9,21.8,108,160,213,110,46.9,182,176,32.1,122,101,156,97.6,51.6
Clc1ccc(Nc2nnc(Cc3ccncc3)c3ccccc23)cc1 at 10000 nM,165,84.0,-,67.9,296,108,79.8,165,144,102,-,104,116,101,110
COc1cc([C@@H]2c3cc4c(cc3[C@@H](O[C@@H]3O[C@@H]5CO[C@@H](C)O[C@H]5[C@H](O)[C@H]3O)[C@H]3COC(=O)[C@H]23)OCO4)cc(OC)c1O at 100 nM,84.2,144,95.0,28.5,60.7,88.5,-,109,125,109,-,79.3,270,136,183
O=C(O)c1ccc2c(c1)nc(Nc1cccc(Cl)c1)c1ccncc12 at 2000 nM,28.5,57.3,211,47.7,146,162,87.4,42.2,197,29.8,-,114,79.8,115,67.7
C[C@]12O[C@H](C[C@]1(O)CO)n1c3ccccc3c3c4c(c5c6ccccc6n2c5c31)CNC4=O at 20 nM,181,56.4,22.5,175,72.6,164,21.8,111,100,46.4,-,87.2,114,88.0,95.4
Oc1nc(-c2ccc(C(F)(F)F)cc2)nc2c1CSCC2 at 10000 nM,42.8,82.9,80.6,81.7,135,84.5,82.4,55.8,126,87.6,64.5,44.5,38.1,113,306
Oc1cc(-c2nc(-c3ccccc3)[nH]c2-c2ccncc2)ccc1Cl at 1000 nM,92.8,48.9,51.7,50.9,1670,390,162,52.5,115,92.6,55.7,123,115,124,137
Cn1c(=O)n(-c2ccc(C(C)(C)C#N)cc2)c2c3cc(-c4cnc5ccccc5c4)ccc3ncc21 at 20 nM,122,447,55.1,185,279,180,103,104,118,69.8,-,104,111,103,229
C[C@@H](N)c1ccc(C(=O)Nc2ccnc3[nH]ccc23)cc1 at 2000 nM,81.1,200,212,42.1,104,92.4,685,55.3,184,198,-,207,133,79.4,110
NC1(c2ccc(-c3nc4ccn5c(=O)[nH]nc5c4cc3-c3ccccc3)cc2)CCC1 at 2000 nM,148,30.1,169,115,91.6,85.6,44.7,70.4,106,40.9,-,42.7,151,59.8,251
O=C(O)c1ccc(-c2c[nH]c3ncc(-c4ccccc4)cc23)cc1C1CCCC1 at 800 nM,324,112,40.9,130,75.0,122,148,142,68.0,63.1,-,94.4,225,128,57.0
O=C(Oc1ccc([N+](=O)[O-])cc1)N1CCC(C(O)(c2ccc3c(c2)OCO3)c2ccc3c(c2)OCO3)CC1 at 5000 nM,40.3,96.2,92.5,182,140,61.0,174,81.2,92.7,67.9,37.1,76.3,82.3,81.2,53.4
COc1cc(Nc2ncc(F)c(Nc3ccc4c(n3)NC(=O)C(C)(C)O4)n2)cc(OC)c1OC at 2000 nM,168,384,105,113,51.2,150,218,126,175,84.2,-,85.9,279,126,168
CCCS(=O)(=O)Nc1ccc(F)c(C(=O)c2c[nH]c3ncc(Cl)cc23)c1F at 400 nM,205,222,-,55.6,142,206,174,112,69.3,35.9,-,189,35.7,99.2,93.9
C=C(c1ccc(C(=O)O)cc1)c1cc2c(cc1C)C(C)(C)CCC2(C)C at 10000 nM,36.7,112,1010,107,70.6,86.3,134,53.9,70.3,39.0,-,260,66.4,117,147
CN(c1ncccc1CNc1nc(Nc2ccc3c(c2)CC(=O)N3)ncc1C(F)(F)F)S(C)(=O)=O at 400 nM,141,38.1,210,149,146,182,163,122,136,114,-,86.7,238,132,66.4
Cc1cc(Nc2cc(N3CCN(C)CC3)nc(/C=C/c3ccccc3)n2)n[nH]1 at 200 nM,185,203,106,127,43.2,170,77.7,109,148,111,-,78.5,114,88.0,73.3
O=C(O)[C@@H]1[O][Sb](=[O])([O][Sb]2(=[O])[O][C@H]([C@H](O)CO)[C@H](O)[C@H](C(=O)O)[O]2)[O][C@H]([C@H](O)CO)[C@@H]1O (stereo partly shown) at 10000 nM,49.4,111,116,66.6,197,66.2,160,76.6,155,223,-,85.5,89.4,74.2,25.9
CC1(C)CCC(c2ccc(Cl)cc2)=C(CN2CCN(c3ccc(C(=O)NS(=O)(=O)c4ccc(N[C@H](CCN5CCOCC5)CSc5ccccc5)c(S(=O)(=O)C(F)(F)F)c4)cc3)CC2)C1 at 2000 nM,107,184,541,39.5,192,265,1000,164,131,1510,-,213,354,131,165

For reference, 4 entries once more:

{"partner": "CC1(C)CCC(c2ccc(Cl)cc2)=C(CN2CCN(c3ccc(C(=O)NS(=O)(=O)c4ccc(N[C@H](CCN5CCOCC5)CSc5ccccc5)c(S(=O)(=O)C(F)(F)F)c4)cc3)CC2)C1 at 2000 nM", "IPC-298": 107, "LOX IMVI": 184, "MZ2-MEL": 541, "COLO 800": 39.5, "WM451Lu": 192, "WM3526": 265, "WM1716": 1000, "RVH-421": 164, "A2058": 131, "UACC-257": 1510, "MEL-HO": 213, "RPMI-7951": 354, "WM3619": 131, "SK-MEL-5": 165}
{"partner": "COc1cc(Nc2ncc(F)c(Nc3ccc4c(n3)NC(=O)C(C)(C)O4)n2)cc(OC)c1OC at 2000 nM", "IPC-298": 168, "LOX IMVI": 384, "MZ2-MEL": 105, "COLO 800": 113, "WM451Lu": 51.2, "WM3526": 150, "WM1716": 218, "RVH-421": 126, "A2058": 175, "UACC-257": 84.2, "MEL-HO": 85.9, "RPMI-7951": 279, "WM3619": 126, "SK-MEL-5": 168}
{"partner": "Cc1cc(Nc2cc(N3CCN(C)CC3)nc(/C=C/c3ccccc3)n2)n[nH]1 at 200 nM", "IPC-298": 185, "LOX IMVI": 203, "MZ2-MEL": 106, "COLO 800": 127, "WM451Lu": 43.2, "WM3526": 170, "WM1716": 77.7, "RVH-421": 109, "A2058": 148, "UACC-257": 111, "MEL-HO": 78.5, "RPMI-7951": 114, "WM3619": 88.0, "SK-MEL-5": 73.3}
{"partner": "O=C(Oc1ccc([N+](=O)[O-])cc1)N1CCC(C(O)(c2ccc3c(c2)OCO3)c2ccc3c(c2)OCO3)CC1 at 5000 nM", "IPC-298": 40.3, "LOX IMVI": 96.2, "MZ2-MEL": 92.5, "COLO 800": 182, "WM451Lu": 140, "WM3526": 61.0, "WM1716": 174, "RVH-421": 81.2, "A2058": 92.7, "UACC-257": 67.9, "501mel": 37.1, "MEL-HO": 76.3, "RPMI-7951": 82.3, "WM3619": 81.2, "SK-MEL-5": 53.4}